Source: PubChem BioAssay AID652243 (Drosophila RNAi Screening Center, 2013)

- Test: 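Knock-downs that decrease or increase androgen receptor reporter signal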 (primary screen)
- System: Drosophila S2R+ cells
- Reagent: long dsRNA against Drosophila genes
- Duration: 72 h (48 h, then 24 h hormone)
- Treatment: synthetic androgen R1881 at 10 nM for 24 h
- Read-out: 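Firefly light from an androgen-responsive reporter and Renilla control light per well, raw and unnormalised, for each of two replicates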
- Scale: firefly reporter light: higher = more light from androgen-responsive reporter; Renilla control light: higher = more constitutive control signal (cell number, transfection)
- Rule for the call: 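Hit when the log firefly-to-Renilla ratio dropped or increased by a fixed fold versus the mean of GFP or LacZ controls across duplicate plates; lowering cut given as 1.5 and as 3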
- Meaning of the calls: active = hit: reporter lowered or raised; inactive = no hit
The screen tested about 24,000 reagents; this is an unselected part of those that have a named target and a result. Of all reagents, 246 (1%) are marked active. 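Plates not normalised; calls are printed but the firefly/Renilla ratio behind them is not deposited; fold cut for lowering reported inconsistently.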 Raw values vary from plate to plate and are shown uncorrected. Entries without a mark were called inactive. A plus sign joins genes that one reagent is predicted to hit. Not stated in the record: the amount of reagent.

With knock-down of pnt (GeneID 42757) [DRSC23204] the results were firefly reporter light, replicate 1 = 4.22e5; firefly reporter light, replicate 2 = 4.67e5; Renilla control light, replicate 1 = 5.80e5; Renilla control light, replicate 2 = 3.81e5.
Knock-down of pnt (GeneID 42757) [DRSC29116] gave: firefly reporter light, replicate 1 = 4.31e5; firefly reporter light, replicate 2 = 3.70e5; Renilla control light, replicate 1 = 1.11e6; Renilla control light, replicate 2 = 8.63e5.
With knock-down of lt (GeneID 3355130) [DRSC03759], the record shows firefly reporter light, replicate 1 = 3.89e5; firefly reporter light, replicate 2 = 5.34e5; Renilla control light, replicate 1 = 1.72e6; Renilla control light, replicate 2 = 1.72e6.
Depletion of Trissin (GeneID 41890) [DRSC14994] gave: firefly reporter light, replicate 1 = 1.24e5; firefly reporter light, replicate 2 = 1.58e5; Renilla control light, replicate 1 = 2.15e6; Renilla control light, replicate 2 = 2.65e6.
Knock-down of Yod1 (GeneID 38603) [DRSC10433] came out at: firefly reporter light, replicate 1 = 1.06e6; firefly reporter light, replicate 2 = 9.80e5; Renilla control light, replicate 1 = 1.88e6; Renilla control light, replicate 2 = 2.60e6.
After knock-down of Yod1 (GeneID 38603) [DRSC27122] the results were firefly reporter light, replicate 1 = 3.65e5; firefly reporter light, replicate 2 = 2.42e5; Renilla control light, replicate 1 = 7.28e5; Renilla control light, replicate 2 = 4.48e5.
With knock-down of RpS5a (GeneID 32700) [DRSC20282], the record shows firefly reporter light, replicate 1 = 1.05e5; firefly reporter light, replicate 2 = 90545; Renilla control light, replicate 1 = 7.03e5; Renilla control light, replicate 2 = 8.17e5.
After knock-down of CG17385 (GeneID 36603) [DRSC06664] the results were firefly reporter light, replicate 1 = 46695; firefly reporter light, replicate 2 = 1.04e5; Renilla control light, replicate 1 = 6.97e5; Renilla control light, replicate 2 = 6.97e5.
Silencing of CG17385 (GeneID 36603) [DRSC26999] gave: firefly reporter light, replicate 1 = 5.80e5; firefly reporter light, replicate 2 = 3.96e5; Renilla control light, replicate 1 = 8.87e5; Renilla control light, replicate 2 = 7.17e5.
CG8170 (GeneID 35908) [DRSC07087] scored firefly reporter light, replicate 1 = 1.78e5; firefly reporter light, replicate 2 = 1.99e5; Renilla control light, replicate 1 = 2.09e6; Renilla control light, replicate 2 = 1.53e6.
After knock-down of CG12849 (GeneID 37971) [DRSC04129] the results were firefly reporter light, replicate 1 = 5.39e5; firefly reporter light, replicate 2 = 4.03e5; Renilla control light, replicate 1 = 2.75e6; Renilla control light, replicate 2 = 1.89e6.
Knock-down of beat-IIIa (GeneID 35035) [DRSC01577] came out at: firefly reporter light, replicate 1 = 1.76e5; firefly reporter light, replicate 2 = 2.02e5; Renilla control light, replicate 1 = 5.45e5; Renilla control light, replicate 2 = 4.42e5.
beat-IIIa (GeneID 35035) [DRSC02178] gave firefly reporter light, replicate 1 = 2.07e5; firefly reporter light, replicate 2 = 2.64e5; Renilla control light, replicate 1 = 2.32e6; Renilla control light, replicate 2 = 2.89e6.
For CG9406 (GeneID 37405) [DRSC04552] the deposit lists firefly reporter light, replicate 1 = 3.86e5; firefly reporter light, replicate 2 = 4.06e5; Renilla control light, replicate 1 = 2.05e6; Renilla control light, replicate 2 = 1.71e6.
CR12628 + Mgstl [DRSC03702] showed firefly reporter light, replicate 1 = 2.84e5; firefly reporter light, replicate 2 = 3.12e5; Renilla control light, replicate 1 = 1.47e6; Renilla control light, replicate 2 = 1.14e6.
CR12628 + Mgstl [DRSC20568] scored firefly reporter light, replicate 1 = 3.06e5; firefly reporter light, replicate 2 = 2.65e5; Renilla control light, replicate 1 = 9.25e5; Renilla control light, replicate 2 = 6.14e5.
CG1463 (GeneID 32211) [DRSC19603] gave firefly reporter light, replicate 1 = 70150; firefly reporter light, replicate 2 = 1.04e5; Renilla control light, replicate 1 = 5.81e5; Renilla control light, replicate 2 = 5.16e5.
For Caf1-105 (GeneID 36107) [DRSC06209] the deposit lists firefly reporter light, replicate 1 = 2.25e5; firefly reporter light, replicate 2 = 1.10e5; Renilla control light, replicate 1 = 1.05e6; Renilla control light, replicate 2 = 7.79e5.
With knock-down of Prosbeta3 (GeneID 41079) [DRSC16801] the results were firefly reporter light, replicate 1 = 37277; firefly reporter light, replicate 2 = 27186; Renilla control light, replicate 1 = 3.06e5; Renilla control light, replicate 2 = 3.43e5.
x16 (GeneID 33967) [DRSC00960] showed firefly reporter light, replicate 1 = 2.23e5; firefly reporter light, replicate 2 = 1.67e5; Renilla control light, replicate 1 = 9.03e5; Renilla control light, replicate 2 = 7.69e5.
Against x16 (GeneID 33967) [DRSC03638], the entry reads firefly reporter light, replicate 1 = 5.38e5; firefly reporter light, replicate 2 = 7.99e5; Renilla control light, replicate 1 = 1.51e6; Renilla control light, replicate 2 = 2.02e6.
Against x16 (GeneID 33967) [DRSC23865] the deposit lists firefly reporter light, replicate 1 = 4.45e5; firefly reporter light, replicate 2 = 3.81e5; Renilla control light, replicate 1 = 1.19e6; Renilla control light, replicate 2 = 6.68e5.
Against CG4021 (GeneID 37484) [DRSC04439], the values are firefly reporter light, replicate 1 = 3.38e5; firefly reporter light, replicate 2 = 3.45e5; Renilla control light, replicate 1 = 2.20e6; Renilla control light, replicate 2 = 2.39e6.
Depletion of CG4021 (GeneID 37484) [DRSC25492] resulted in: firefly reporter light, replicate 1 = 9.54e5; firefly reporter light, replicate 2 = 1.01e6; Renilla control light, replicate 1 = 1.03e6; Renilla control light, replicate 2 = 1.08e6.
Wnt5 (GeneID 32838) [DRSC20300] gave firefly reporter light, replicate 1 = 6.98e5; firefly reporter light, replicate 2 = 5.23e5; Renilla control light, replicate 1 = 2.37e6; Renilla control light, replicate 2 = 2.68e6.
Against Wnt5 (GeneID 32838) [DRSC28853], the entry reads firefly reporter light, replicate 1 = 5.39e5; firefly reporter light, replicate 2 = 4.27e5; Renilla control light, replicate 1 = 1.07e6; Renilla control light, replicate 2 = 1.51e6.
Against lig (GeneID 35771) [DRSC07246], the entry reads firefly reporter light, replicate 1 = 2.27e5 (active); firefly reporter light, replicate 2 = 1.80e5; Renilla control light, replicate 1 = 1.05e6; Renilla control light, replicate 2 = 1.04e6.
Silencing of lig (GeneID 35771) [DRSC07247] came out at: firefly reporter light, replicate 1 = 1.73e5; firefly reporter light, replicate 2 = 1.17e5; Renilla control light, replicate 1 = 6.65e5; Renilla control light, replicate 2 = 4.15e5.
Depletion of lig (GeneID 35771) [DRSC23574] came out at: firefly reporter light, replicate 1 = 3.39e5; firefly reporter light, replicate 2 = 3.79e5; Renilla control light, replicate 1 = 6.25e5; Renilla control light, replicate 2 = 6.94e5.
